Reference: the supplement of paper PMC10849652
The list shows a part of the results. Residues, ends and D or L forms follow the SMILES beside them. *: point of attachment. Cbz = O=C(OCc1ccccc1)*

By UniProt entry, the sequences of proteins in these tests, tags left out. Where a name states a change or a piece, a line headed by the entry shows the natural chain unless it says otherwise.
UniProt O75554: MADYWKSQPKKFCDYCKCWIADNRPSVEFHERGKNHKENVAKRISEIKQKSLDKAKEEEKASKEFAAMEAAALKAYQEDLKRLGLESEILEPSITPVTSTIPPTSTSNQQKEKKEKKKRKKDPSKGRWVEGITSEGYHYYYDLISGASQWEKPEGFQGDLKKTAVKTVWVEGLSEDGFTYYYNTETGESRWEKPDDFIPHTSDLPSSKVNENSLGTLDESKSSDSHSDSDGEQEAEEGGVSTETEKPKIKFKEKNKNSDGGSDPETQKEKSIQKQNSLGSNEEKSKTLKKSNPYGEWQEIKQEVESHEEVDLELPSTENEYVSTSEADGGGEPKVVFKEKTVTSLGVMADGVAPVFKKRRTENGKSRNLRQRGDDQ
UniProt Q12768: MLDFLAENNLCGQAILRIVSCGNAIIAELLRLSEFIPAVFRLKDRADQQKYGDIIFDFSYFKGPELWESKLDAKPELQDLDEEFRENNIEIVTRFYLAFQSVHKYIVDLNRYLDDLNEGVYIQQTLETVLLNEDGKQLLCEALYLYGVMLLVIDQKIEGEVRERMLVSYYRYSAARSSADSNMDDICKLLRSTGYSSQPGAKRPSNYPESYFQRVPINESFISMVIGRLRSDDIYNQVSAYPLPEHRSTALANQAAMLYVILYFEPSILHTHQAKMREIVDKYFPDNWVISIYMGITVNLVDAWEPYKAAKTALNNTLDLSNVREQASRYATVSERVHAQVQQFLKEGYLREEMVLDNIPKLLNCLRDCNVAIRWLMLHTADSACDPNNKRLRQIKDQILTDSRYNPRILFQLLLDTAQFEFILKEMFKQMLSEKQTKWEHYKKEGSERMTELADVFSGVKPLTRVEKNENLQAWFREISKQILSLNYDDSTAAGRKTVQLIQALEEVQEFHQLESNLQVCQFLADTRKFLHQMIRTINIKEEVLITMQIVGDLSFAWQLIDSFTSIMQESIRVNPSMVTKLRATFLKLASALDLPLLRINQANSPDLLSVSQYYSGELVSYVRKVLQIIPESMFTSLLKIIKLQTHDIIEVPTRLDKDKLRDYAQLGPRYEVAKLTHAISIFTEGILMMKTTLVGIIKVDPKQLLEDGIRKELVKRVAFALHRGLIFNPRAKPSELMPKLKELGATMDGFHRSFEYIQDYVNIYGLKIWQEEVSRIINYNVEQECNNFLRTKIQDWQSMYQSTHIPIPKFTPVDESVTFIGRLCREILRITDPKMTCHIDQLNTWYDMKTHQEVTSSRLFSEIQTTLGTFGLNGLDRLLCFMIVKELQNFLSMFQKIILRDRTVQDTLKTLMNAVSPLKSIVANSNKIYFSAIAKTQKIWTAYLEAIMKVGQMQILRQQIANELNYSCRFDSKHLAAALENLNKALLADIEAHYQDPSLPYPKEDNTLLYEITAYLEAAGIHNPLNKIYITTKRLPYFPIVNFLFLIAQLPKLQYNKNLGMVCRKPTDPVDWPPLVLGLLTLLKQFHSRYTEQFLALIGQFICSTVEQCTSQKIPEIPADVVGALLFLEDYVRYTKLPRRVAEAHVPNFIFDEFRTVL
UniProt Q15906, whole entry, looked up: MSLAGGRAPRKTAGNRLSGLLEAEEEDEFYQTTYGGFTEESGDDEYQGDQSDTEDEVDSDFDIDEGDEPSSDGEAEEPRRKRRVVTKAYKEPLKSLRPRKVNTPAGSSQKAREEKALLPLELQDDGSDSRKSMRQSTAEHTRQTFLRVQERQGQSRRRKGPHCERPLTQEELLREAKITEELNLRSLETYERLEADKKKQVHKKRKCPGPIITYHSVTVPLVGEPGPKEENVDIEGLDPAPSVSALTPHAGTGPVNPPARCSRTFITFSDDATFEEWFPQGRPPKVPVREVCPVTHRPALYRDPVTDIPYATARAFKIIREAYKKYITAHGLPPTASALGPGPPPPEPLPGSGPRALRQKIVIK
UniProt Q3ZAQ7: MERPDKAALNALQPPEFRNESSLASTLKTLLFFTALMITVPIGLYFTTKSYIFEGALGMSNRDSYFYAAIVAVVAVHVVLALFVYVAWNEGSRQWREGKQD
UniProt Q9BV38: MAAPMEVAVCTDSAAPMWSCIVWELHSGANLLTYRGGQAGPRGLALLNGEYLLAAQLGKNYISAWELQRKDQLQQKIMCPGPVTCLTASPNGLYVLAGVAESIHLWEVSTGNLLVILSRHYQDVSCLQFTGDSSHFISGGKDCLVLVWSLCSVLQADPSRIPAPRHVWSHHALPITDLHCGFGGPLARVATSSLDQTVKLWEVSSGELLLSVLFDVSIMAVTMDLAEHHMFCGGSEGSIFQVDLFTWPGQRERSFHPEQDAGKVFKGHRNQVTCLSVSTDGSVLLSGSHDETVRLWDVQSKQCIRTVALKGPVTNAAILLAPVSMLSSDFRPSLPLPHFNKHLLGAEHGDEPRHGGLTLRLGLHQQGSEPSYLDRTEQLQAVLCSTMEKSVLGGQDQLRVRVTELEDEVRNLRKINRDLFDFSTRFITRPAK
UniProt Q9C0J8: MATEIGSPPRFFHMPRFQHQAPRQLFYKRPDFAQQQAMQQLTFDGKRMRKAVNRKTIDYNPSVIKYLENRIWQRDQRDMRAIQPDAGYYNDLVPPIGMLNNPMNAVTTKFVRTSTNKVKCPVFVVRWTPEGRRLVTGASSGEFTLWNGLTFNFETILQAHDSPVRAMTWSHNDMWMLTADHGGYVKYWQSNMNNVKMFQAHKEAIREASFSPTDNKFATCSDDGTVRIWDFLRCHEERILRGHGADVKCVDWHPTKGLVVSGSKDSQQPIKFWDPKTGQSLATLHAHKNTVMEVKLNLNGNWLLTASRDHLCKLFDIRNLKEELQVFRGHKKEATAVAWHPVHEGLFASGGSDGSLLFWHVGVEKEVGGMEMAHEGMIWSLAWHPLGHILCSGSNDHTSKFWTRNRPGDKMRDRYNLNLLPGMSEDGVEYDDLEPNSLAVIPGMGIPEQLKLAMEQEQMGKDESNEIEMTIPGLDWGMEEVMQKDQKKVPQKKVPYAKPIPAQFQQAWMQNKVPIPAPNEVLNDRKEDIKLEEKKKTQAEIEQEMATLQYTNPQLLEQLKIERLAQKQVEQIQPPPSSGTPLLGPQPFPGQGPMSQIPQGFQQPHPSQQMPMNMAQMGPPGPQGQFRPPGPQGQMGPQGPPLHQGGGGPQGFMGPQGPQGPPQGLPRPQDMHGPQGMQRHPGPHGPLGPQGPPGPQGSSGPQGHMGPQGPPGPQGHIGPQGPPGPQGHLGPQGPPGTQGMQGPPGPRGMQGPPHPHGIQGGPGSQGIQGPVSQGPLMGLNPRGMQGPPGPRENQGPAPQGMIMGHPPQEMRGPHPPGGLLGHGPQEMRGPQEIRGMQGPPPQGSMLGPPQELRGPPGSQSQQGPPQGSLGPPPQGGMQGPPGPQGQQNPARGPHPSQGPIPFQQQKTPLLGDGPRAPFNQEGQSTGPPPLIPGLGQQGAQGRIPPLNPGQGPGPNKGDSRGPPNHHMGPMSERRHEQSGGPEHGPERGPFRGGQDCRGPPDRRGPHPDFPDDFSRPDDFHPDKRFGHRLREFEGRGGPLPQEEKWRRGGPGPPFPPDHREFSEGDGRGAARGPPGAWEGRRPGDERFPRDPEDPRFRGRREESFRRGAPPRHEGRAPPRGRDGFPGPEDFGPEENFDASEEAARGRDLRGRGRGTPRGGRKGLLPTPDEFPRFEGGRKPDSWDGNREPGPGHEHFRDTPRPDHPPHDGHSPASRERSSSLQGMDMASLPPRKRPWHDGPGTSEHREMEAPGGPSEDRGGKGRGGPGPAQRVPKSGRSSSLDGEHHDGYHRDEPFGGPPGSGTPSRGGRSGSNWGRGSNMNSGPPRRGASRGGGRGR
WASHC2C, A0A096LPC5, UniProt A0A096LPC5, whole entry, looked up: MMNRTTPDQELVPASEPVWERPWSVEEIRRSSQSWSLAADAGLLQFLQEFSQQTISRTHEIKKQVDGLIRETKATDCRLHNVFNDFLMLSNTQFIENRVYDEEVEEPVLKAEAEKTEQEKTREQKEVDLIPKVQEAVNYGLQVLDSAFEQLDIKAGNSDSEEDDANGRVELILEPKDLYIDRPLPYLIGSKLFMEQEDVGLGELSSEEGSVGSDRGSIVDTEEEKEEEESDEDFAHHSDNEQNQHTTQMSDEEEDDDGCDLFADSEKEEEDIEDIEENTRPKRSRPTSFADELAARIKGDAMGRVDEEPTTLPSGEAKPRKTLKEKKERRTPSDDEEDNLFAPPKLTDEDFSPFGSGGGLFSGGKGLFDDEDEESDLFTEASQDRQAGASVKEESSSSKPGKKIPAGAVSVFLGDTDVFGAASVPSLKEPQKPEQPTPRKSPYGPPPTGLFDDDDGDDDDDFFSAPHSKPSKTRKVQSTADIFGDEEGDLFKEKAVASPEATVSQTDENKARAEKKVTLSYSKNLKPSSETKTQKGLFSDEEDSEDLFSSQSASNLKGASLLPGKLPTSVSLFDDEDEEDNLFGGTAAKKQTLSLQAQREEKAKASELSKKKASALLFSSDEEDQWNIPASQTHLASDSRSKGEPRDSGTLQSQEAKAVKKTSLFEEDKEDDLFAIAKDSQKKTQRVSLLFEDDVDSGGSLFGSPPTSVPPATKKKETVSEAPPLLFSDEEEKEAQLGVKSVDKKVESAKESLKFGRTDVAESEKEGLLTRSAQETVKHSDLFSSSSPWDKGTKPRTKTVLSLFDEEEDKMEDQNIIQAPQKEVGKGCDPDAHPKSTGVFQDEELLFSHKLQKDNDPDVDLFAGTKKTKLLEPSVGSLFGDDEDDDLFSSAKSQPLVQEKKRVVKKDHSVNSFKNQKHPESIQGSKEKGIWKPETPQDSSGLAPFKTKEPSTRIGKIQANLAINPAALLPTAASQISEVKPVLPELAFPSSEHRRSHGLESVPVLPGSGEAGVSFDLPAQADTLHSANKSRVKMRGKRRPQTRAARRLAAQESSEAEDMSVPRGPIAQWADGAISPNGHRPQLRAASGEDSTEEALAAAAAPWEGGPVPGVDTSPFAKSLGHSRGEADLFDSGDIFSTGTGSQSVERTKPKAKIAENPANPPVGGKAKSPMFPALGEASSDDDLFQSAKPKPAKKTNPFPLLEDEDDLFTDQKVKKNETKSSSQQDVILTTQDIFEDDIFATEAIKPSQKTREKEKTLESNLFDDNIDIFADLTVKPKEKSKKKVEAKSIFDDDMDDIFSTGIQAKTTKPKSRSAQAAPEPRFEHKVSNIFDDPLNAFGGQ
UniProt Q502W6: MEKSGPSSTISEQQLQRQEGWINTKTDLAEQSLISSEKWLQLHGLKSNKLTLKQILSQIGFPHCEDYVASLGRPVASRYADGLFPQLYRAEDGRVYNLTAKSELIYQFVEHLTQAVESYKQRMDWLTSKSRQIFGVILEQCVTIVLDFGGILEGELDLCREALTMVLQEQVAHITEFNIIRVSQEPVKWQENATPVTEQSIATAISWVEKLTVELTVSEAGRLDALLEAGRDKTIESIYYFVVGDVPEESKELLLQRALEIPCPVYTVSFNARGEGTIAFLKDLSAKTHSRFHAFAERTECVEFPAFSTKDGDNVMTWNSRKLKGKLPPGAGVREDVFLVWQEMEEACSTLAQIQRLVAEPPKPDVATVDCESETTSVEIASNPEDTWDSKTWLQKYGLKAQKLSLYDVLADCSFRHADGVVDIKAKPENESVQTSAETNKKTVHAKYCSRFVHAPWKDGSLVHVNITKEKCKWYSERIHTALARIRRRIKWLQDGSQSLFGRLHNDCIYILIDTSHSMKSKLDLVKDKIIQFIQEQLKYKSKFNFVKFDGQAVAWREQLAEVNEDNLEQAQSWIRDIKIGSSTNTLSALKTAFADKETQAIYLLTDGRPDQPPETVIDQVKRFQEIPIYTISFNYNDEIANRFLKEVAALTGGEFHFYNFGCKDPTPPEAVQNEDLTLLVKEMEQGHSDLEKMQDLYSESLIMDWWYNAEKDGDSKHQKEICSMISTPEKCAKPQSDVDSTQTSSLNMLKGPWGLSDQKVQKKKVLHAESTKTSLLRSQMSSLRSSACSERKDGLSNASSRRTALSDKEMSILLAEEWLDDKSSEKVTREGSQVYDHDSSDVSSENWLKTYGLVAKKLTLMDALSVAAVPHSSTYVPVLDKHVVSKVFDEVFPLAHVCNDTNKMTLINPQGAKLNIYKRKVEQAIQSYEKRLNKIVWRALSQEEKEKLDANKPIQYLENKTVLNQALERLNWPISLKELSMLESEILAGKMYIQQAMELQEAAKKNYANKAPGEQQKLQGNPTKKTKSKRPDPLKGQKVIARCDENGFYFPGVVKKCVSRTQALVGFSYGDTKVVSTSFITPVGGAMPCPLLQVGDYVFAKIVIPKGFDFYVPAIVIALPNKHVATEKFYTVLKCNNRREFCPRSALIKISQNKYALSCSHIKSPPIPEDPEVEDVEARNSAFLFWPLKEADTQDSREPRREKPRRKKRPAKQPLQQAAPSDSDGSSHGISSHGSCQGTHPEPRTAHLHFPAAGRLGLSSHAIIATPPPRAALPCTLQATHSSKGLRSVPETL

Tests used:
Test in all cases: log2 fold change, soluble protein after heating vs DMSO (PISA); higher = thermal stabilisation; K562 cells, 10 uM, 30 min; active = over 0.2 and 3.5 SD of the protein, either way, in both replicates (recomputed)
erlotinib = compound: C#Cc1cccc(Nc2ncnc3cc(OCCOC)c(OCCOC)cc23)c1 [erlotinib]
Procedure, shortened: (§1)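 K562 cells (2×10^6 cells/mL) were treated with 10 μM compound for 30 min, and aliquots were heated for 3 min over 48°C-58°C. Pooled aliquots were extracted in PBS with 0.5% NP-40 at 4°C, and the supernatant after 21,000xg for 90 min was measured by TMTpro 16plex LC-MS/MS with channel sums equalised. Reported thermal stability, relative to control samples and from duplicates, is a log2 fold change.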

[1] = compound: C/C(=N\NC(=O)C1=CC(=CC=C1)S(=O)(=O)N2CCOCC2)/C3=C(C=CC(=C3)Cl)O
Procedure, shortened: as §1

[2] = compound: C1=CC(=C(C=C1Cl)C2=NC3=NC=CN=C3C(=N2)NC4=CC=NC=C4)F
Procedure, shortened: as §1

[3] = compound: C1=CC(=CC=C1C2=NC3=C(N2)C=C(C=C3)C(=O)N)OC4=CC=C(C=C4)Cl
Procedure, shortened: as §1

[4] = compound: C1=CC2=C(C=CC(=C2)/C=C\3/C(=O)NC(=NCC4=CC=CS4)S3)N=C1
Procedure, shortened: as §1

[5] = compound: C1=CC2=NC=CN=C2C=C1/C=C/3\C(=O)NC(=O)S3
Procedure, shortened: as §1

[6] = compound: C1=CC=C(C=C1)C2=NC(=C(N2)C3=CC=NC=C3)C4=CC(=C(C=C4)Cl)O
Procedure, shortened: as §1

[7] = compound: C1=CC=C2C(=C1)C3=NNC4=CC=CC(=C43)C2=O
Procedure, shortened: as §1

[8] = compound: C1CCN(C1)C(=O)NC2=CC=CC(=C2)NC3=NC=C(C(=N3)NCCC4=CN=CN4)Br
Procedure, shortened: as §1

[9] = compound: C1CN(CCC1(CC2=CC=C(C=C2)Cl)N)C3=NC=NC4=C3C=CN4
Procedure, shortened: as §1

IRAK-1-4 Inhibitor I = compound: C1COCCN1CCN2C3=CC=CC=C3N=C2NC(=O)C4=CC(=CC=C4)[N+](=O)[O-] [IRAK-1-4 Inhibitor I]
Procedure, shortened: as §1

ibrutinib = compound: C=CC(=O)N1CCC[C@@H](n2nc(-c3ccc(Oc4ccccc4)cc3)c3c(N)ncnc32)C1 [ibrutinib]
Procedure, shortened: as §1

[10] = compound: CC(=O)c1cnc2ccc(-c3cc(Cl)c(O)c(Cl)c3)nc2c1N[C@H]1CC[C@H](CN(C)C)CC1
Procedure, shortened: as §1

ralimetinib = compound: CC(C)(C)Cn1c(N)nc2ccc(-c3[nH]c(C(C)(C)C)nc3-c3ccc(F)cc3)nc21 [ralimetinib]
Procedure, shortened: as §1

[11] = compound: CC(C)(O)CC(=O)NCCn1ccc2ncnc(Nc3ccc(Oc4cccc(C(F)(F)F)c4)c(Cl)c3)c21
Procedure, shortened: as §1

[12] = compound: CC(C)C1=C2N=C(C=C(N2N=C1)NCC3=CC=CC=C3)NCCCCCCN
Procedure, shortened: as §1

[13] = compound: CC(C)C[C@@H](C=O)NC(=O)[C@H](CC(C)C)NC(=O)[C@H](CC(C)C)NC(=O)OCc1ccccc1
Procedure, shortened: as §1

pinometostat = compound: CC(C)N(C[C@H]1O[C@@H](n2cnc3c(N)ncnc32)[C@H](O)[C@@H]1O)[C@H]1C[C@@H](CCc2nc3cc(C(C)(C)C)ccc3[nH]2)C1 [pinometostat]
Procedure, shortened: as §1

[14] = compound: CC1=C(C2=C(C=C1)C(=O)C3=CC=CC=C3N2CCCN)C
Procedure, shortened: as §1

[15] = compound: CC1=C(C(CC(=O)N1)C2=CC=C(C=C2)C(F)(F)F)C(=O)NC3=C(C=C4C(=C3)C=NN4)F
Procedure, shortened: as §1

Row | Target | log2 fold change (erlotinib) | log2 fold change [1] | log2 fold change [2] | log2 fold change [3] | log2 fold change [4] | log2 fold change [5] | log2 fold change [6] | log2 fold change [7] | log2 fold change [8] | log2 fold change [9] | log2 fold change (IRAK-1-4 Inhibitor I) | log2 fold change (ibrutinib) | log2 fold change [10] | log2 fold change (ralimetinib) | log2 fold change [11] | log2 fold change [12] | log2 fold change [13] | log2 fold change (pinometostat) | log2 fold change [14] | log2 fold change [15]
1 | WBP4 (UniProt O75554) | inactive: 0 | inactive: -0.07 | inactive: 0.04 | inactive: 0.009 | inactive: -0.082 | inactive: 0.031 | inactive: -0.059 | inactive: -0.055 | inactive: 0.031 | inactive: 0.036 | inactive: 0.082 | inactive: -0.001 | inactive: 0.033 | inactive: -0.057 | inactive: -0.001 | inactive: 0.098 | inactive: 0.041 | inactive: -0.06 | inactive: 0.02 | –
2 | WASHC5 (UniProt Q12768) | inactive: 0.019 | inactive: 0.084 | inactive: -0.061 | inactive: -0.004 | inactive: 0.088 | inactive: -0.058 | inactive: 0.04 | inactive: 0.018 | inactive: 0.002 | inactive: 0.002 | inactive: -0.042 | inactive: 0.007 | inactive: -0.024 | inactive: 0.072 | inactive: -0.116 | active: -0.277 | inactive: 0.003 | inactive: 0.067 | inactive: -0.014 | –
3 | VPS72 isoform 2 (UniProt Q15906) | inactive: -0.017 | inactive: -0.062 | inactive: 0.053 | inactive: -0.108 | inactive: 0.04 | inactive: -0.094 | inactive: -0.054 | inactive: -0.134 | inactive: 0.056 | inactive: 0.028 | – | inactive: 0.119 | inactive: 0.033 | inactive: -0.122 | inactive: -0.177 | inactive: 0.133 | inactive: -0.117 | – | active: -0.473 | –
4 | WARS1 (UniProt G3V277) | inactive: 0.183 | inactive: -0.032 | – | inactive: -0.076 | inactive: 0.25 | inactive: 0.036 | – | inactive: -0.014 | inactive: 0.141 | inactive: -0.008 | inactive: -0.005 | inactive: -0.064 | inactive: -0.184 | – | – | inactive: -0.009 | – | inactive: 0.114 | inactive: 0.087 | –
5 | VMA21 (UniProt Q3ZAQ7) | inactive: 0.013 | inactive: 0.047 | inactive: 0.068 | inactive: 0.049 | inactive: -0.042 | inactive: -0.021 | – | inactive: -0.039 | – | – | inactive: 0.146 | inactive: 0.052 | inactive: 0.067 | – | inactive: -0.074 | inactive: 0.061 | – | inactive: 0.043 | – | inactive: 0.008
6 | WDR18 (UniProt Q9BV38) | inactive: 0.058 | inactive: 0.039 | inactive: 0.024 | inactive: -0.015 | inactive: -0.111 | inactive: 0.031 | inactive: -0.045 | inactive: 0.011 | inactive: -0.035 | inactive: 0.065 | inactive: -0.005 | inactive: -0.03 | inactive: -0.007 | inactive: 0.064 | inactive: 0.025 | inactive: 0.008 | inactive: -0.102 | inactive: 0.028 | active: -0.962 | –
7 | WDR33 (UniProt Q9C0J8) | inactive: 0.047 | inactive: -0.036 | inactive: -0.486 | inactive: -0.075 | inactive: 0.006 | inactive: 0.113 | inactive: -0.069 | inactive: -0.065 | inactive: -0.033 | inactive: 0.006 | – | inactive: -0.166 | inactive: -0.15 | inactive: -0.058 | inactive: 0 | inactive: 0.015 | inactive: 0.07 | – | inactive: 0.193 | inactive: 0.029
8 | WASHC2C, A0A096LPC5 | inactive: 0.095 | inactive: -0.224 | inactive: -0.016 | inactive: -0.006 | inactive: 0.204 | inactive: 0.113 | inactive: 0.111 | inactive: -0.071 | inactive: -0.069 | inactive: 0.08 | inactive: 0.01 | inactive: -0.005 | inactive: -0.159 | inactive: -0.035 | inactive: 0.085 | inactive: -0.214 | inactive: 0.057 | inactive: 0.008 | inactive: -0.125 | –
9 | VWA3B isoform 6 (UniProt Q502W6) | inactive: 0.107 | inactive: -0.036 | inactive: 0.213 | inactive: -0.057 | inactive: 0.048 | inactive: 0.111 | inactive: -0.214 | inactive: -0.049 | inactive: 0.03 | inactive: -0.03 | inactive: 0.043 | inactive: -0.069 | inactive: 0.013 | inactive: -0.031 | inactive: 0 | inactive: -0.407 | inactive: -0.256 | inactive: 0.079 | inactive: 0.089 | –

A different layout for part of the listing above:
Row	Target	log2 fold change (erlotinib)	log2 fold change [1]	log2 fold change [2]	log2 fold change [3]	log2 fold change [4]	log2 fold change [5]	log2 fold change [6]	log2 fold change [7]	log2 fold change [8]	log2 fold change [9]	log2 fold change (IRAK-1-4 Inhibitor I)	log2 fold change (ibrutinib)	log2 fold change [10]	log2 fold change (ralimetinib)	log2 fold change [11]	log2 fold change [12]	log2 fold change [13]	log2 fold change (pinometostat)	log2 fold change [14]	log2 fold change [15]
8	WASHC2C, A0A096LPC5	inactive: 0.095	inactive: -0.224	inactive: -0.016	inactive: -0.006	inactive: 0.204	inactive: 0.113	inactive: 0.111	inactive: -0.071	inactive: -0.069	inactive: 0.08	inactive: 0.01	inactive: -0.005	inactive: -0.159	inactive: -0.035	inactive: 0.085	inactive: -0.214	inactive: 0.057	inactive: 0.008	inactive: -0.125	–
9	VWA3B isoform 6 (UniProt Q502W6)	inactive: 0.107	inactive: -0.036	inactive: 0.213	inactive: -0.057	inactive: 0.048	inactive: 0.111	inactive: -0.214	inactive: -0.049	inactive: 0.03	inactive: -0.03	inactive: 0.043	inactive: -0.069	inactive: 0.013	inactive: -0.031	inactive: 0	inactive: -0.407	inactive: -0.256	inactive: 0.079	inactive: 0.089	–
